According to PubChem BioAssay AID540276 (National Center for Advancing Translational Sciences (NCATS), 2011):
The campaign covered roughly 300,000 compounds. About 5,400 (1.8%) were called active. The shares of active, inactive and inconclusive entries below differ from those in the screen. Calls follow the shape of the full dose curve; tested in HEK293 cells. Potencies of inconclusive entries are doubtful fits and often do not repeat.

Test: qHTS for inhibitors of binding or entry into cells for Marburg Virus
Conditions: Marburg virus pseudotyped entry inhibition, cell reporter; series mostly up to 37.8 µM
Potency is read from the fitted curve at half-maximal effect.

| SMILES | Potency |
| --- | --- |
| CCCC[n+]1ccn(-c2nc3ccccc3nc2[N-]S(=O)(=O)c2cccs2)c1 | inactive |
| CC1=C(C(=O)Nc2cccc(F)c2)C(c2ccsc2)C2=C(CC(C)(C)CC2=O)N1 (stereo not given) | inconclusive: 12.6 µM [inhibitor, partial curve] |
| COc1ccc(Cc2ccccc2C(=O)O)cc1 | inconclusive: 35.5 µM [activator, single point] |
| O=c1oc2ccccc2cc1-c1cn2cccnc2n1 | inconclusive: 14.6 µM [inhibitor, partial curve, poor fit] |
| Cc1ccc(-c2nc3c(C)cccn3c2Nc2ccccc2C)s1 | inactive |
| Clc1ccc(-c2cn3c(n2)SCC3)cc1 | inactive |
| CC1(C(=O)NCc2ccc(Cl)c(Cl)c2)Oc2ccccc2NC1=O (stereo not given) | inactive |
| CC(Oc1cccc(Cl)c1)C(=O)Nc1ccccc1N1CCCC1 (stereo not given) | inactive |
| O=C(Cc1ccccc1)N1CCc2[nH]nc(-c3ccccc3)c2C1 | inconclusive: 8.91 µM [inhibitor, partial curve, poor fit] |
| CCN(CC)C(=O)CSc1nc2cc3c(cc2c(=O)n1CCCCCC(=O)NCc1ccc(OC)cc1)OCO3 | inconclusive: 35.5 µM [inhibitor, single point] |
| Cc1cc(NC(=O)C2CC2)ncc1NC(=O)C12CC3CC(CC(C3)C1)C2 | inconclusive: 0.398 µM [inhibitor, full curve] |
| COc1ccc(C(=O)Nc2ccc(O)cc2C(=O)O)cc1 | inconclusive: 8.91 µM [inhibitor, partial curve, poor fit] |
| CC(=O)Nc1ccc(C(=O)CSc2nnc3scc(-c4ccccc4)n23)cc1 | inactive |
| O=C(NCc1ccccn1)C1CC(c2ccccc2O)=NO1 (stereo not given) | inactive |
| Cc1c(Cl)cccc1NC(=O)C1CCCN(c2nnc(-n3c(C)ccc3C)s2)C1 (stereo not given) | inactive |
| COc1ccc(CN(C)C(=O)CNC(=O)c2ccc3ccccc3c2)c(OC)c1 | inconclusive: 35.5 µM [inhibitor, single point] |
| N#CCCn1cc(/C=C2\NC(=S)N(c3ccccc3)C2=O)c(-c2ccc(F)cc2)n1 | inconclusive: 35.5 µM [inhibitor, single point] |
| COc1ccc(-c2c(C#N)c(N)nc3c2CCc2ccccc2-3)cc1OC | active: 23.1 µM |
| Cc1c(-c2ccccn2)c(=O)[nH]n1-c1ccc(F)cc1 | active: 8.91 µM |
| COc1ccc(C(=O)NCC(c2ccc(F)cc2)N2CCOCC2)cc1S(=O)(=O)N1CCCC1 (stereo not given) | inactive |
| CC(=O)N/C(=C\c1ccc(F)cc1)C(=O)OCc1ccccc1 | inconclusive: 0.794 µM [activator, full curve, poor fit] |
| COCOc1ccc(OC)cc1C(=O)C=Cc1ccc(OC)c(Br)c1 | inconclusive: 0.376 µM [inhibitor, full curve, poor fit] |
| N=c1ccn2c(n1)O[C@H]1[C@H](O)[C@@H](CO)O[C@H]12 | inconclusive: 3.26 µM [inhibitor, partial curve, poor fit] |
| COC(=O)c1ccc(C(=O)OC)c(NC(=O)CN(C)Cc2cccc(Cl)c2Cl)c1 | inconclusive: 1.16 µM [inhibitor, single point] |

| SMILES | Potency |
| --- | --- |
| O=C(COC(=O)/C=C/c1ccco1)NC1CCCCC1 | inconclusive: 1 µM [activator, partial curve, poor fit] |
| CCOC(=O)c1ccc(Nc2nc3nonc3nc2Nc2cccc(C)c2C)cc1 | inconclusive: 2.51 µM [inhibitor, full curve, poor fit] |
| CN1CCN(NC(=S)NC2CCCCC2)CC1 | inconclusive: 1.41 µM [activator, single point] |
| O=C(NN1C(=O)C2C3C=CC(C4CC34)C2C1=O)c1ccc(Cl)c(Cl)c1 (stereo not given) | inconclusive: 1.12 µM [activator, partial curve, poor fit] |
| CCCCOC(=O)/C(=C/C=C/c1ccccc1)NC(=O)c1ccccc1 | inactive |
| Cc1c(NC(=O)c2cccc(NC(=O)COc3ccccc3C#N)c2)c(=O)n(-c2ccccc2)n1C | inconclusive: 1.58 µM [inhibitor, full curve, poor fit] |
| COc1ccc(N2CCN(c3n[nH]c(N)n3)CC2)cc1 | inactive |
| O=C(NCCNC(=O)c1ccc(Cl)cc1Cl)c1ccco1 | inactive |
| Cc1c(OCC(F)(F)F)ccnc1CSc1nc2ccccc2[nH]1 | inconclusive: 29.1 µM [inhibitor, single point] |
| CC(=C/c1ccccc1)/C=N/NC(=O)c1cnccn1 | inconclusive: 1.26 µM [activator, single point] |
| O=C(Nc1cccc(Cl)c1)NC1CCCCC1 | inactive |
| O=C1C2CC=CCC2C(=O)N1c1ccc(NCCc2ccc(Cl)cc2)c([N+](=O)[O-])c1 (stereo not given) | inconclusive: 0.562 µM [inhibitor, full curve, poor fit] |
| CNS(=O)(=O)c1ccc(NC(=O)c2cc(-c3ccncc3)nc3ccc(Cl)cc23)cc1 | inactive |
| COc1ccc(S(=O)(=O)N2CCOC23CCN(S(=O)(=O)c2c(C)cc(C)cc2C)CC3)cc1 | inconclusive: 11.2 µM [inhibitor, single point] |
| COc1cc(C)c2occ(/C(C)=N\O)c2c1 | inactive |
| Cc1cc(N/C=C\c2nnnn2-c2ccc(F)cc2)no1 | inconclusive: 2 µM [activator, partial curve, poor fit] |
| CCc1ccccc1NC(=O)c1ccc(NCCc2ccccc2)c([N+](=O)[O-])c1 | inconclusive: 3.98 µM [activator, full curve, poor fit] |
| CSc1ccc(NC(=O)N2CC=C(n3c(=O)[nH]c4ccccc43)CC2)cc1 | inconclusive: 10 µM [inhibitor, partial curve, poor fit] |
| COc1ccccc1OCC(O)CN1CCN(C(=O)c2ccccc2)CC1 (stereo not given) | inconclusive: 5.62 µM [inhibitor, single point] |
| CCOC(=O)N1CCC(NC(=O)c2ccc3c(c2)N(Cc2cc(C)ccc2C)C(=O)c2ccccc2S3(=O)=O)CC1 | inconclusive: 35.5 µM [inhibitor, partial curve, poor fit] |
| CCCCCOC(=O)Cc1c(C)nc(-c2ccccc2)[nH]c1=O | inactive |
| CCOc1ccc(CCn2c3c(c(=O)[nH]c2=O)C(NC(=O)c2ccccc2)(C(F)(F)F)C(=O)N3)cc1OCC (stereo not given) | inactive |
| CCOC(=O)c1c(C)nc2sc3c(=O)n(-c4ccc(C(C)=O)cc4)nnc3c2c1-c1ccc(OC)cc1 | inconclusive: 11.2 µM [inhibitor, partial curve, poor fit] |
| Oc1ccc2ccccc2c1/C=N/Nc1nnc(-c2ncc[nH]2)c2ccccc12 | active: 6.51 µM |

| SMILES | Potency |
| --- | --- |
| COc1ccc(/C=C/C(=O)NC2CCCCC2C)cc1 (stereo not given) | inconclusive: 5.62 µM [activator, partial curve, poor fit] |
| CCCCCn1c(=O)[nH]c2cc(C(=O)N3CCN(c4cc(Cl)ccc4C)CC3)ccc2c1=O | inactive |
| COc1cc(C2C(C#N)=C(N)Oc3cc(N(C)C)ccc32)cc2c1OCO2 (stereo not given) | inconclusive: 2.59 µM [inhibitor, partial curve] |
| COc1ccc([N+](=O)[O-])cc1NC(=O)Nc1cccc(Cl)c1 | inactive |
| CCOC(=O)N1CCN(Cc2ccccc2Cl)CC1 | inactive |
| Cc1ccc(C)c(NC(=O)c2nc(S(C)(=O)=O)ncc2N(Cc2ccc(C(C)(C)C)cc2)Cc2ccco2)c1 | inconclusive: 14.1 µM [inhibitor, single point] |
| COC(=O)N1CCN(c2ccc(OC)cc2)CC1 | inactive |
| CCC(=O)Nc1ccccc1C(=O)C(=O)Nc1ccccc1 | inconclusive: 18.4 µM [activator, partial curve] |
| COc1ccccc1NC(=O)c1sc2nc(C)c(C(=O)Nc3ccc(C)cc3C)c(-c3ccc(Br)cc3)c2c1N | inactive |
| COc1ccc(Cl)cc1NC(=O)CN(C)C(C)C(=O)NCC1CCCCC1 (stereo not given) | inconclusive: 23.1 µM [inhibitor, single point] |
| O=C(COC(=O)c1ccc(O)cc1O)NC(=O)c1ccccc1 | inactive |
| CCC(C)n1ncn(-c2ccc(N3CCN(c4ccc(OC)cc4)CC3)cc2)c1=O (stereo not given) | inconclusive: 29.1 µM [activator, single point] |
| O=C(NCc1ccccc1)c1cc2sccc2n1Cc1ccc(F)cc1 | inconclusive: 7.08 µM [inhibitor, single point] |
| CCOc1ccc(C(=O)c2cn(CC(=O)Nc3ccc4c(c3)OCCO4)c3ccc(OC)cc3c2=O)cc1 | inactive |
| O=C(COC(=O)c1cccc([N+](=O)[O-])c1)NCc1ccc2c(c1)OCO2 | inactive |
| COc1ccc2nc(NC(=O)C3CC(=O)N(c4ccc5c(c4)OCCO5)C3)sc2c1 (stereo not given) | inactive |
| Nc1ccc2nc(-c3cc(Cl)c(N)c(Cl)c3)[nH]c2c1 | inconclusive: 29.1 µM [inhibitor, partial curve, poor fit] |
| Brc1ccc(-c2csc(Nc3nc(-c4ccc(Br)cc4)cs3)n2)cc1 | inactive |
| O=C(CN1CCc2ccccc2C1)NCc1ccco1 | inconclusive: 1.64 µM [activator, full curve] |
| COc1ccc2cc(C(C)C(=O)N3CCC(C)CC3)ccc2c1 (stereo not given) | inconclusive: 11.2 µM [inhibitor, partial curve, poor fit] |
| COCCn1nnnc1C(c1cc2ccc(C)cc2[nH]c1=O)N(Cc1ccco1)Cc1cccs1 (stereo not given) | inconclusive: 18.3 µM [inhibitor, single point] |
| Cc1cccc(N(C(=O)c2snc(C(N)=O)c2N)C(C(=O)NC2CCCC2)c2ccc(C)o2)c1 (stereo not given) | inconclusive: 35.5 µM [inhibitor, partial curve, poor fit] |

Copied from the listing, 20 compounds:

| SMILES | Potency |
| --- | --- |
| Cc1c(NC(=O)c2cccc(NC(=O)COc3ccccc3C#N)c2)c(=O)n(-c2ccccc2)n1C | inconclusive: 1.58 µM [inhibitor, full curve, poor fit] |
| COc1ccc(N2CCN(c3n[nH]c(N)n3)CC2)cc1 | inactive |
| O=C(NCCNC(=O)c1ccc(Cl)cc1Cl)c1ccco1 | inactive |
| Cc1c(OCC(F)(F)F)ccnc1CSc1nc2ccccc2[nH]1 | inconclusive: 29.1 µM [inhibitor, single point] |
| CC(=C/c1ccccc1)/C=N/NC(=O)c1cnccn1 | inconclusive: 1.26 µM [activator, single point] |
| O=C(Nc1cccc(Cl)c1)NC1CCCCC1 | inactive |
| O=C1C2CC=CCC2C(=O)N1c1ccc(NCCc2ccc(Cl)cc2)c([N+](=O)[O-])c1 (stereo not given) | inconclusive: 0.562 µM [inhibitor, full curve, poor fit] |
| CNS(=O)(=O)c1ccc(NC(=O)c2cc(-c3ccncc3)nc3ccc(Cl)cc23)cc1 | inactive |
| COc1ccc(S(=O)(=O)N2CCOC23CCN(S(=O)(=O)c2c(C)cc(C)cc2C)CC3)cc1 | inconclusive: 11.2 µM [inhibitor, single point] |
| COc1cc(C)c2occ(/C(C)=N\O)c2c1 | inactive |
| Cc1cc(N/C=C\c2nnnn2-c2ccc(F)cc2)no1 | inconclusive: 2 µM [activator, partial curve, poor fit] |
| CCc1ccccc1NC(=O)c1ccc(NCCc2ccccc2)c([N+](=O)[O-])c1 | inconclusive: 3.98 µM [activator, full curve, poor fit] |
| CSc1ccc(NC(=O)N2CC=C(n3c(=O)[nH]c4ccccc43)CC2)cc1 | inconclusive: 10 µM [inhibitor, partial curve, poor fit] |
| COc1ccccc1OCC(O)CN1CCN(C(=O)c2ccccc2)CC1 (stereo not given) | inconclusive: 5.62 µM [inhibitor, single point] |
| CCOC(=O)N1CCC(NC(=O)c2ccc3c(c2)N(Cc2cc(C)ccc2C)C(=O)c2ccccc2S3(=O)=O)CC1 | inconclusive: 35.5 µM [inhibitor, partial curve, poor fit] |
| CCCCCOC(=O)Cc1c(C)nc(-c2ccccc2)[nH]c1=O | inactive |
| CCOc1ccc(CCn2c3c(c(=O)[nH]c2=O)C(NC(=O)c2ccccc2)(C(F)(F)F)C(=O)N3)cc1OCC (stereo not given) | inactive |
| CCOC(=O)c1c(C)nc2sc3c(=O)n(-c4ccc(C(C)=O)cc4)nnc3c2c1-c1ccc(OC)cc1 | inconclusive: 11.2 µM [inhibitor, partial curve, poor fit] |
| Oc1ccc2ccccc2c1/C=N/Nc1nnc(-c2ncc[nH]2)c2ccccc12 | active: 6.51 µM |
| COc1ccc(/C=C/C(=O)NC2CCCCC2C)cc1 (stereo not given) | inconclusive: 5.62 µM [activator, partial curve, poor fit] |
